Experimental data taken from PubChem BioAssay AID1347076 (National Center for Advancing Translational Sciences (NCATS), 2019).
About 13,000 (3.2%) of roughly 400,000 compounds were called active. Inconclusive means that the source gave no clear call. Such entries were picked first, then a sample of the others. Calls follow the shape of the dose curve; as a rule, active = well fitted cell-killing curve with a large enough effect; inconclusive = small, poorly fitted or top-dose-only effect, or effect the other way; inactive = flat fitted curve, though single readings scatter. Where the call is inconclusive, the potency comes from a doubtful curve fit. A structure can be active in one record and inactive in another. Where a SMILES comes first, the peptide text is derived from it. The star is where a group is joined. Boc = CC(C)(C)OC(=O)*
% is scaled to controls: 0 for no effect and ±100 for the full control effect; potency is read from the fitted curve at half-maximal effect.

Assay: qHTS assay for MDR1-selective chemotherapeutics: Primary screen using the drug-selected MDR subline cells KB-V1; also: nearly all actives have a fitted effect of over 60% in size
Details: KB-V1 MDR cells viability, CellTiter-Glo, 72 h; activity change, negative = cytotoxicity: at 46.1 µM (top of the series)
Outline: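 In this primary screen, KB-V1 cells overexpressing P-gp are incubated with library compounds (lowest to highest concentration) for 72 h at 37 degrees C before a luminescent ATP viability read.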
In the case of COCCNC(=O)CCC1CCN(Cc2ccc(-c3ccccc3)cc2)CC1, the “activity change, negative = cytotoxicity” value is reported as inactive: -1.34%. In the case of COc1cc(OC)cc(-c2c(-c3ccsc3)c3cc(Br)ccc3n2C)c1, the “activity change, negative = cytotoxicity” value is reported as inactive: -13.7%. With COc1c(C(=O)Nc2ccc(CN3CCOCC3)cc2)cc2ccccc2c1Br the Potency was inconclusive: 10.3 µM [cytotoxic, partial curve, poor fit]. For Cc1c(Cl)ccc2c(C(=O)NCCCn3nccc3C)cc(-c3ccccn3)nc12, the Potency was inconclusive: 6.51 µM [cytotoxic, partial curve]. With Nc1cc(Cl)ccc1Oc1ccc(Cl)cc1 the Potency was inconclusive: 29.1 µM [cytotoxic, single point]. With COc1cccc(NC(=O)C2CCCN(S(=O)(=O)c3cccc4nsnc34)C2)c1 (centres undefined) the Potency was inconclusive: 16.4 µM [cytotoxic, partial curve, poor fit]. For Cc1cccc(C(=O)NN2S(=O)(=O)c3ccccc3S2(=O)=O)c1, the “activity change, negative = cytotoxicity” value was inactive: 5.66%. For CN(C)S(=O)(=O)c1ccc(N=Cc2c(C(F)(F)F)[nH]n(C)c2=O)cc1, the Potency was inconclusive: 2.91 µM [rising, full curve, poor fit]. For CC(OC(=O)c1cc(=O)c2cc(Cl)ccc2o1)C(=O)N1CCCC1 (centres undefined), the Potency was inconclusive: 20.6 µM [rising, single point]. For COc1ccc(NC(=O)CN(C)C(=O)c2cn(-c3ccccc3)nc2-c2ccc(F)cc2)cc1, the Potency was inconclusive: 16.4 µM [cytotoxic, single point]. In the case of O=C(CSc1ccc(-c2cccs2)nn1)N1CCCCCC1, the “activity change, negative = cytotoxicity” value is reported as inactive: -6.5%. With COc1ccc([C@@H]2CC=C(C(=O)O)[C@H](c3ccccc3F)N2S(=O)(=O)c2ccccc2C)cc1 the Potency was inconclusive: 23.1 µM [rising, partial curve, poor fit]. With C/C(=N/NC(=O)c1ccc(Cl)s1)c1cccnc1 the Potency was inconclusive: 6.51 µM [rising, full curve]. In the case of CC(C)(C)C1CCC(=NNc2ncc(C(F)(F)F)cc2Cl)CC1 (centres undefined), the Potency is reported as inconclusive: 29.1 µM [cytotoxic, single point]. In the case of Cc1c(Cl)cccc1NC(=O)N1CCCN(c2nc(-c3ccccc3)ns2)CC1, the Potency is reported as inconclusive: 23.1 µM [cytotoxic, single point]. For O=C(NCc1cccnc1)c1csc([C@@H]2C[C@H](O)[C@@H](CO)O2)n1, the “activity change, negative = cytotoxicity” value was inactive: -1.98%. In the case of C#CCOCCOCCOCCNc1nc(N2CCN(C(=O)[C@H](CCC(=O)O)n3cc(C(N)Cc4ccc(O)cc4)nn3)CC2)nc(N2CCN(C(=O)[C@H](CCC(=O)O)n3cc(C(N)[C@H](C)CC)nn3)CC2)n1 (some centres undefined), the Potency is reported as inconclusive: 16.4 µM [rising, single point]. For COc1ccc(-c2ccc(C(=O)C3CC3)cc2)cc1, the Potency was inconclusive: 18.4 µM [rising, single point]. In the case of O=C(Nc1ccccc1F)c1ccc(COc2ccc(Cl)cc2Cl)o1, the “activity change, negative = cytotoxicity” value is reported as inactive: 12%. For CCOC(=O)c1c(-c2ccccc2)nnn1-c1nc(OCC)nc(N2CCCCC2)n1, the Potency was active: 20.6 µM. With CCOc1ccccc1NC(=O)[C@@H](NC(=O)c1ccccc1F)C(C)C the Potency was inconclusive: 7.31 µM [cytotoxic, partial curve]. With COc1ccc(CNC(=O)CCNS(=O)(=O)c2ccc3c(c2)CCCC(=O)N3)cc1 the “activity change, negative = cytotoxicity” value was inactive: -10.4%. For C=C(C)C(=O)Nc1cccc(C2=NOC3(C2)C[C@@H](C(N)=O)N(C(=O)c2cc([N+](=O)[O-])cc([N+](=O)[O-])c2C)C3)c1 (some centres undefined), the Potency was inconclusive: 7.31 µM [rising, partial curve, poor fit]. With c1cc2cc(-c3c(-c4ccc5c(c4)OCO5)noc3-c3ccsc3)ccc2[nH]1 the Potency was active: 20.6 µM. With Cc1ccc(Cn2c(CCNC(=O)C(C)C)nc3ccccc32)cc1 the “activity change, negative = cytotoxicity” value was inactive: 0%. With CCNc1nc(N)nc(-c2cc(Cl)ccc2O)n1 the Potency was inconclusive: 29.1 µM [cytotoxic, single point]. For COc1ccc2nc(N/C(N)=N/S(C)(=O)=O)nc(C)c2c1, the Potency was active: 2.06 µM. For CC(C)(C)c1nc(CN2CCCCC2)cc(CN2CCCCC2)c1O, the Potency was inconclusive: 29.1 µM [cytotoxic, single point]. With CCCc1[nH]nc2c1C(c1ccc(Br)s1)C(C#N)=C(N)O2 (centres undefined) the Potency was inconclusive: 29.1 µM [cytotoxic, single point]. For CCOC1CCCc2oc(-c3ccc(OC)cc3)c(C#CCCO)c21 (centres undefined), the Potency was inconclusive: 32.6 µM [rising, single point]. With O=C(/C=C/c1cc(Br)ccc1O)c1ccco1 the Potency was active: 16.4 µM. With C/C(=N\NC(=O)CSCc1ccc(Cl)cc1)c1ccc2c(c1)OCCO2 the Potency was inconclusive: 23.1 µM [cytotoxic, partial curve, poor fit]. With Cc1cccc(NC(=O)Cn2nc([N+](=O)[O-])c(Br)c2C)n1 the Potency was inconclusive: 16.4 µM [cytotoxic, single point]. In the case of Cc1ccccc1-n1c2nc(=O)n(C)c(=O)c-2cc2ccccc21, the “activity change, negative = cytotoxicity” value is reported as inactive: -21.2%. In the case of Cc1ccc(S(=O)(=O)Oc2cc(N)c3c(n2)CCC3)cc1, the Potency is reported as inconclusive: 29.1 µM [rising, single point]. In the case of CSc1ccc(C(=O)C2CCCN(Cc3cccn3-c3cccnc3)C2)cc1 (centres undefined), the Potency is reported as inconclusive: 18.4 µM [cytotoxic, single point]. With COC(=O)c1cc(COc2ccc3oc(C)c(C(=O)OC(C)C)c3c2)c(C)o1 the Potency was inconclusive: 18.4 µM [cytotoxic, single point]. With O=C(Cc1ccc(Cl)cc1)NCC(=O)N1CCN(Cc2ccccc2)CC1 the Potency was inconclusive: 23.1 µM [cytotoxic, single point]. With CCNc1nc(NCC)nc(SCCOC(=O)Nc2ccccc2)n1 the “activity change, negative = cytotoxicity” value was inactive: -2.18%. For Cc1ccc(Cl)cc1N(C)C(=O)C1CCCN(c2ncnc3onc(-c4ccc(F)cc4)c23)C1 (centres undefined), the Potency was inconclusive: 25.9 µM [cytotoxic, single point]. In the case of O=C(CCc1ccc(S(=O)(=O)NCCc2ccccc2)cc1)Nc1ccc2c(c1)OCCO2, the Potency is reported as active: 20.6 µM. In the case of Cc1cc(N2CCN(c3ccccc3)CC2)n2nnnc2n1, the Potency is reported as inconclusive: 32.6 µM [cytotoxic, single point]. In the case of COCCn1c(C)cc(C(=O)COC(=O)c2ccc(Cl)c(S(N)(=O)=O)c2)c1C, the Potency is reported as active: 23.1 µM. For Cc1ccc(-c2ccc(/C=N/NC(N)=S)o2)cc1, the Potency was inconclusive: 9.2 µM [cytotoxic, partial curve]. For Cc1ccc(S(=O)(=O)N2CCCCC2)cc1NC(=O)CSc1nc(N)cc(=O)[nH]1, the “activity change, negative = cytotoxicity” value was inactive: 26.9%. With O=c1ccc(Oc2nc(N3CCOCC3)nc(N3CCOCC3)n2)nn1-c1ccccc1 the “activity change, negative = cytotoxicity” value was inactive: 0%. With COc1ccc(Cl)cc1S(=O)(=O)NC(C)C(=O)NCCCn1ccnc1 (centres undefined) the “activity change, negative = cytotoxicity” value was inactive: 5.2%. With O=C(CCc1ccccc1)NNC(=O)c1ccco1 the “activity change, negative = cytotoxicity” value was inactive: 13.8%. With COc1ccc(OC)c(S(=O)(=O)N2CCCCCC2)c1 the Potency was inconclusive: 18.4 µM [cytotoxic, single point]. In the case of O=C(NCCS(=O)(=O)c1ccc(Br)cc1)c1ccc(F)cc1, the activity change, negative = cytotoxicity is reported as inconclusive: -7.11%. For COc1ccc2c(c1OC)C(=O)N1N=C(c3ccc(Br)cc3)CC21 (centres undefined), the Potency was inconclusive: 2.31 µM [cytotoxic, partial curve, poor fit]. With CCCn1c(CN(C)Cc2ccccc2)nc2c1c(=O)n(C)c(=O)n2C the Potency was inconclusive: 20.6 µM [cytotoxic, single point]. In the case of CCc1c(-c2ccccc2OC)ncn1Cc1cccc(-c2ccccc2)c1, the Potency is reported as inconclusive: 20.6 µM [cytotoxic, single point]. In the case of COc1cccc(S(=O)(=O)NCc2ccc3c(c2)OCO3)c1, the “activity change, negative = cytotoxicity” value is reported as inactive: 12.8%. With CCCCOC(=O)c1ccc(Nc2ncnc3c2cnn3-c2cccc(C)c2)cc1 the “activity change, negative = cytotoxicity” value was inactive: -0.604%. In the case of Clc1cccc2c1CCN(Cc1nc(-c3cnccn3)no1)C2, the Potency is reported as inconclusive: 18.4 µM [cytotoxic, single point]. In the case of Cc1cc(-c2ccccc2)nc2c(Br)c(=O)[nH]n12, the Potency is reported as inconclusive: 7.31 µM [rising, partial curve, poor fit]. For O=C(COc1cccc2ccccc12)Nc1cc(Cl)ccc1C(=O)O, the Potency was inconclusive: 3.66 µM [cytotoxic, partial curve, poor fit]. With Cc1nn(-c2ccccc2)c(Cl)c1C(=O)NCc1cccs1 the Potency was active: 14.6 µM. For O=S1(=O)CC(O)C(O)CS1 (centres undefined), the “activity change, negative = cytotoxicity” value was inactive: 6.59%. In the case of CCCNC(=O)C1(C)CCCN(Cc2csc3ccccc23)C1 (centres undefined), the Potency is reported as inconclusive: 18.4 µM [cytotoxic, partial curve]. In the case of CC(C)C[C@H]1CNC(=S)N1CC1CCCN1C[C@H](CC(C)C)N1C[C@H](Cc2ccc(O)cc2)N(CC2CCCCCC2)C1=S (some centres undefined), the Potency is reported as inconclusive: 20.6 µM [cytotoxic, partial curve]. For CC1CCN(C(=O)CCCOc2cc(=O)n(C)c3ccccc23)CC1, the Potency was inconclusive: 9.2 µM [cytotoxic, partial curve, poor fit]. For CCNC(=O)C1(C)CCCN(C(=O)c2ccc(C(F)(F)F)nc2C)C1 (centres undefined), the “activity change, negative = cytotoxicity” value was inactive: -0.121%. For CCc1[nH]nc(C(=O)N2CCCC(CNS(=O)(=O)c3cccs3)C2)c1C (centres undefined), the Potency was inconclusive: 29.1 µM [rising, single point]. For C=CCn1c(COC)nnc1SCC(=O)c1ccc(F)cc1, the “activity change, negative = cytotoxicity” value was inactive: 0.885%. For Cn1cnc([N+](=O)[O-])c1Sc1ncnc2nc[nH]c12, the Potency was inconclusive: 1.46 µM [cytotoxic, full curve, poor fit]. In the case of CCC(C)C(NC(=O)OC(C)(C)C)C(=O)NC(Cc1ccccc1)C(=O)OC (stereo not drawn) (Boc-Ile-Phe-OMe; configuration not given here), the Potency is reported as inconclusive: 0.92 µM [rising, full curve, poor fit]. For CCN(c1ccccc1)S(=O)(=O)c1ccc(Cl)c(NC(=O)COC(=O)c2ccc(O)cc2)c1, the Potency was inconclusive: 29.1 µM [cytotoxic, single point].
